Test results: publication PMC8551335
Results are given in words; binding and its absence hold for the method and conditions named. Binding seen in cells or lysates may run through a third protein. Some binding calls cover weakened binding; strength is not graded here. For some of these results: Sequences can lack the tags named with a protein.

Chains of the proteins cited; added tags and fusions are not shown.
UniProt Q13315: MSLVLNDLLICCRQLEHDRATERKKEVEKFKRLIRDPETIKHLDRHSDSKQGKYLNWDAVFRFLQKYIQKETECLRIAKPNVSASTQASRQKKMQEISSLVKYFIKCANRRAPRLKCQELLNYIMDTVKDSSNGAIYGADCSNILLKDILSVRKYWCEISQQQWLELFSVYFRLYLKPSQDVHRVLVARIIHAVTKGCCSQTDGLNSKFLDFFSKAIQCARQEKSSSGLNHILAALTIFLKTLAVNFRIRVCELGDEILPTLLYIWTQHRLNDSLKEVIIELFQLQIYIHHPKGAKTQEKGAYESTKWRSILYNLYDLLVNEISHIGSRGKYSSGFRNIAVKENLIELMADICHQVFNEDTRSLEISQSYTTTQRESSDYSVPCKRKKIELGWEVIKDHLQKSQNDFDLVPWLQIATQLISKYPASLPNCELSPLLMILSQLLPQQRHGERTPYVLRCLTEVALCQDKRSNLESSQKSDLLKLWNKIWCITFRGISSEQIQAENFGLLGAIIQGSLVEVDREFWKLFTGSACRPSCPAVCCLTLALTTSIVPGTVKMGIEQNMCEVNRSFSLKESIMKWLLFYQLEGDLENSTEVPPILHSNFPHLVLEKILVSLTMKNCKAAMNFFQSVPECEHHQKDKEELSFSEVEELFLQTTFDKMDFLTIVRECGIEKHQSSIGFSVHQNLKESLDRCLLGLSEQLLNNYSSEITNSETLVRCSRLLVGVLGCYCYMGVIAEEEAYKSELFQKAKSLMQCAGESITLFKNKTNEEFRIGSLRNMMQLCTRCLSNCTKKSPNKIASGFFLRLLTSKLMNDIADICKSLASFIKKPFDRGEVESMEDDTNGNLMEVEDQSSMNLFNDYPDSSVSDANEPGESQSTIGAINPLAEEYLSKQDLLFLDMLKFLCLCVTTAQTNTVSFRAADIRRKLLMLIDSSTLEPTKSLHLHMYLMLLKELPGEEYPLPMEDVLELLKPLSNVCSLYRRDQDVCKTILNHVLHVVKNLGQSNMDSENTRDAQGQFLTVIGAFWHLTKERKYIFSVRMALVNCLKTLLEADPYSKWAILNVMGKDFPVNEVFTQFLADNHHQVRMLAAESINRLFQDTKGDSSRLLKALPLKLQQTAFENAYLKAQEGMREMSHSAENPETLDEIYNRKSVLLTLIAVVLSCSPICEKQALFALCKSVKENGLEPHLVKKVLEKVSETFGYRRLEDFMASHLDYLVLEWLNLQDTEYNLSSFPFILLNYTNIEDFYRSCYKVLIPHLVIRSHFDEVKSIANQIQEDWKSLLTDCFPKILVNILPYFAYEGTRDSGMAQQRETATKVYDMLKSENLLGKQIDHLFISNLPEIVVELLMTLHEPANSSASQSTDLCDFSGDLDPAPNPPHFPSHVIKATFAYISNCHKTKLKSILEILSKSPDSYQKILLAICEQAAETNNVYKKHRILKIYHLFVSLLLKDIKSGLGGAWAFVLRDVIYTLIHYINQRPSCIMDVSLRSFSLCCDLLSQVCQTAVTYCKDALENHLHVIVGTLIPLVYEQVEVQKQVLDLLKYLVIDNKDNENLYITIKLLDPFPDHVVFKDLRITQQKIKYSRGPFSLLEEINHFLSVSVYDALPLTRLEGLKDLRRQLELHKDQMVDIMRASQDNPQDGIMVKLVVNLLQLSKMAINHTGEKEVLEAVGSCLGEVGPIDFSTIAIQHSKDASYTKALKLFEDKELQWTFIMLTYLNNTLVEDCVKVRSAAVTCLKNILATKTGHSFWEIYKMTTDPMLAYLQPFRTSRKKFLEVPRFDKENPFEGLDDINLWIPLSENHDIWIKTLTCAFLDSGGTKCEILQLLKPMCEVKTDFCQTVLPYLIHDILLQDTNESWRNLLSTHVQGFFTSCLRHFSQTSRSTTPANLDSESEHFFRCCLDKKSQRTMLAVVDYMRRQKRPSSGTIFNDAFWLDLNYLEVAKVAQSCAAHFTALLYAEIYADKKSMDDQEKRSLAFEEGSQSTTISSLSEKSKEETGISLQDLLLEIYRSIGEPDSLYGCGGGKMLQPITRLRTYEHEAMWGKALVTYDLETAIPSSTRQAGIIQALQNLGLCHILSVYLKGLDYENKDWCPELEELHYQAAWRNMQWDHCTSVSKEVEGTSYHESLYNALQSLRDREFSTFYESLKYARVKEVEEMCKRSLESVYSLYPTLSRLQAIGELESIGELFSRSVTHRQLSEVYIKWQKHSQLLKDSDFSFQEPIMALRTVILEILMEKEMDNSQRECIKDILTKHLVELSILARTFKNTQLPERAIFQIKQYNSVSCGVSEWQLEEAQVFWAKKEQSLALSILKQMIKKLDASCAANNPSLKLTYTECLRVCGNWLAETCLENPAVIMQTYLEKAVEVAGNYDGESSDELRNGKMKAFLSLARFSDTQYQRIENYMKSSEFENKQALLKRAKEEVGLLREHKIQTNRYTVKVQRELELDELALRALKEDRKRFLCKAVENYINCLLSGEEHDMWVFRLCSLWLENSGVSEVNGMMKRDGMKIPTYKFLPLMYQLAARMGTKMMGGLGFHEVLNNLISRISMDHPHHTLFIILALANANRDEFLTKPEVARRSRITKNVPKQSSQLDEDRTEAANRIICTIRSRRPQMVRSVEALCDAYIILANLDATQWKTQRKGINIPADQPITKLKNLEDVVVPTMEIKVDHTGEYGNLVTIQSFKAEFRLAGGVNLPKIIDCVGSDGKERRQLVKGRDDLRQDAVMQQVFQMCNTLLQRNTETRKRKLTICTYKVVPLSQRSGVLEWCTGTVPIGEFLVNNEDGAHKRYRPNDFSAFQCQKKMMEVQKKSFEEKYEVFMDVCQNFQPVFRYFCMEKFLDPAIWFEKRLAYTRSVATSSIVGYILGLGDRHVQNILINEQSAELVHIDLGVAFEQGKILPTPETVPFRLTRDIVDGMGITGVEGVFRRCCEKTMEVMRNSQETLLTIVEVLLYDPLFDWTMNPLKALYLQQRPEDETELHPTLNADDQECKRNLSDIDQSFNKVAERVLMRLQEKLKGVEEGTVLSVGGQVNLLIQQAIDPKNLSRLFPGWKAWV
UniProt Q62388: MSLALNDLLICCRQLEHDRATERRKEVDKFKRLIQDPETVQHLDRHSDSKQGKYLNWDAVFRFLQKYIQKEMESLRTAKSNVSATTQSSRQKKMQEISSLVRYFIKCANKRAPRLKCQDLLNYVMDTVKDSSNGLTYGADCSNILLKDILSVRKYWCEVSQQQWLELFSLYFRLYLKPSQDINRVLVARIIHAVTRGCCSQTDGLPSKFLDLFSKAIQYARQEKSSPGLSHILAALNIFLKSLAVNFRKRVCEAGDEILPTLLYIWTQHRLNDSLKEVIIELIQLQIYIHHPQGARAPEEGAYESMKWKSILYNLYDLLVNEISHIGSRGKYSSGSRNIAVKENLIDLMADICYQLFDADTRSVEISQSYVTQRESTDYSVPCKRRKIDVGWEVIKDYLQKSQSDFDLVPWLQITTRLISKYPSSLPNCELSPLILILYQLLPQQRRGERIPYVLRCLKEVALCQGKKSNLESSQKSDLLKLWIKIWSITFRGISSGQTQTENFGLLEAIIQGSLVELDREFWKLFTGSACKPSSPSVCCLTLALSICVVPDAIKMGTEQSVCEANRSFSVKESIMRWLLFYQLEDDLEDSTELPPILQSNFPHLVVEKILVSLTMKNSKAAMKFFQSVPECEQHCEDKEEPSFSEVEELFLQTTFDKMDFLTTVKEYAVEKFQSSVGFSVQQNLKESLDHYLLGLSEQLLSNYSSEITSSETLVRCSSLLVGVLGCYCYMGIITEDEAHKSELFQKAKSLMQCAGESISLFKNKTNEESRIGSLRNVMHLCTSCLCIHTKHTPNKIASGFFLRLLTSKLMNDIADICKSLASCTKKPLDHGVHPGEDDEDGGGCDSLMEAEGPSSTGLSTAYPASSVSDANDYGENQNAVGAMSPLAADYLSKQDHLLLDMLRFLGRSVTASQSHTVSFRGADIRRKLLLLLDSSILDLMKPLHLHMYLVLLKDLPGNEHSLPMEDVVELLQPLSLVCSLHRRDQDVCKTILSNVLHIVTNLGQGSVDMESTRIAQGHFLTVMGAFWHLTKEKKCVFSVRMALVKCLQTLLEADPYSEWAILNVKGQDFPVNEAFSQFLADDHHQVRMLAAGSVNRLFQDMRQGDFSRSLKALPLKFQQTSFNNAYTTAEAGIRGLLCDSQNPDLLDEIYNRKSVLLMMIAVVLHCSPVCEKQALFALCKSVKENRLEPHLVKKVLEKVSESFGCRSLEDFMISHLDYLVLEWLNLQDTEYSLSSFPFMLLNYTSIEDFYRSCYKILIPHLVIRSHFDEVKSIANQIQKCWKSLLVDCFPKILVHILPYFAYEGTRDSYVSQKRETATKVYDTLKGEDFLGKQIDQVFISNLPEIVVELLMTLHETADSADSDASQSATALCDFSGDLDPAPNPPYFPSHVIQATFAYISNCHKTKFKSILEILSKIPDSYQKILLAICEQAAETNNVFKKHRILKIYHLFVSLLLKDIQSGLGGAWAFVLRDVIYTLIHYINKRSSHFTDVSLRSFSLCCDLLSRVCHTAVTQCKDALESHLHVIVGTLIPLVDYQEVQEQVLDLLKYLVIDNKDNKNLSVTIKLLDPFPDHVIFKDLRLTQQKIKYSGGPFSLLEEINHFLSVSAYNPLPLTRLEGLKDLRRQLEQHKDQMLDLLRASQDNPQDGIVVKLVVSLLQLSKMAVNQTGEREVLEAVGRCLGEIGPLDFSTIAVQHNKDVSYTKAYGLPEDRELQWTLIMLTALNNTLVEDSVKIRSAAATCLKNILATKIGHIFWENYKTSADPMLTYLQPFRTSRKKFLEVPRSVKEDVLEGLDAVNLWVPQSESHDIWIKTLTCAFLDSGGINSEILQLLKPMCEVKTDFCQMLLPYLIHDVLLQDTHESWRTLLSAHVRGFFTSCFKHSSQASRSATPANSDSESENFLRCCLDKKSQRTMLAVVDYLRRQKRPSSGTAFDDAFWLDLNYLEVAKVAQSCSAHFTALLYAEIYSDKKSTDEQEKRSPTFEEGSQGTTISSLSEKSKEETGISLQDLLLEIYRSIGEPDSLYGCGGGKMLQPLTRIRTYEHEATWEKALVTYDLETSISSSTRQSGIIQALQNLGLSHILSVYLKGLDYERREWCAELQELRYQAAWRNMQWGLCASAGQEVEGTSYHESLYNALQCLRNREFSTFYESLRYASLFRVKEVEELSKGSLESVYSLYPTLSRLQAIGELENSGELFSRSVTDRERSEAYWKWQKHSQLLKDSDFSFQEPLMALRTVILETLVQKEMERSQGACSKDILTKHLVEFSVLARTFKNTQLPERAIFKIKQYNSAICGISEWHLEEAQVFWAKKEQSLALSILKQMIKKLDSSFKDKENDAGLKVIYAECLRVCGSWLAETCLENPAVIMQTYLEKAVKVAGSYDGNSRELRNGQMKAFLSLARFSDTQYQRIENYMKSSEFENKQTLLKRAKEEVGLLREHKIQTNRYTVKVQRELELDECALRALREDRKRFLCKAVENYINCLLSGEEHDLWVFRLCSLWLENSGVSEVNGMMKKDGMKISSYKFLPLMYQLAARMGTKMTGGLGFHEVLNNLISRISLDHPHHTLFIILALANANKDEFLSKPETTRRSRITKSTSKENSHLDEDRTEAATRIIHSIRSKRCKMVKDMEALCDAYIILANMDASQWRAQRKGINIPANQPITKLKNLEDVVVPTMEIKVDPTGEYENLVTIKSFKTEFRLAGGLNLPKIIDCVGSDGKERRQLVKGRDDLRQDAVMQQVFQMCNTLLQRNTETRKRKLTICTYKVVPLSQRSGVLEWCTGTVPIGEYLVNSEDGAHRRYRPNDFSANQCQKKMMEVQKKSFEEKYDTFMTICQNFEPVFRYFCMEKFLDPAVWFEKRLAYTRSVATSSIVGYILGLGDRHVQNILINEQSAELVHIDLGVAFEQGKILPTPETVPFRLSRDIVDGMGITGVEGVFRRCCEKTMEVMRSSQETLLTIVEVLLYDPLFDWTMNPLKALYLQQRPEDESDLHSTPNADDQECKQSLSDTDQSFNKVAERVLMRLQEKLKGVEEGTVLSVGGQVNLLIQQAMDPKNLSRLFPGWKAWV

Assays:
[1] = target: HA-cGAS (in HA-cGAS-reconstituted cGAS−/− immortalized MEFs) (UniProt Q8C6L5); assay: co-IP; anti-HA immunoprecipitates from HA-cGAS-reconstituted cGAS−/− immortalized MEFs with or without doxorubicin (2 μM for 6 h); immunoblot for γH2AX and ATM; RIPA lysis, Dynabeads Protein G
[2] = target: ATM (endogenous, immunoprecipitated from treated cells, Fig. 5i) (UniProt Q13315); assay: co-IP; ATM immunoprecipitated from cells mock treated or treated with CPT 5 μM, etoposide 10 μM or 2 μg cGAMP for 16 h; immunoblot for TBK1; RIPA lysis, Dynabeads Protein G
[3] = target: ATM (endogenous, immunoprecipitated from HEK293-GFP cells) (human (endogenous in HEK293)) (UniProt Q13315); assay: co-IP; endogenous ATM or GFP immunoprecipitated from HEK293-GFP lysate on Dynabeads Protein G, beads washed and incubated with recombinant GST-TBK1 in IP buffer at 30 °C for 1 h, washed 3 times, immunoblot for TBK1; only the binder purified

Molecule | binding [1] | other results
ATM, endogenous in MEFs (from UniProt Q62388 1-3066) (enzyme) | no binding | –
γH2AX (phosphorylated histone H2AX), endogenous in MEFs (from UniProt P27661 1-143) | binds | –
TANK-binding kinase 1 (TBK1), endogenous (Fig. 5i) (enzyme, UniProt Q9UHD2 1-729) MQSTSNHLWLLSDILGQGATANVFRGRHKKTGDLFAIKVFNNISFLRPVDVQMREFEVLKKLNHKNIVKLFAIEEETTTRHKVLIMEFCPCGSLYTVLEEPSNAYGLPESEFLIVLRDVVGGMNHLRENGIVHRDIKPGNIMRVIGEDGQSVYKLTDFGAARELEDDEQFVSLYGTEEYLHPDMYERAVLRKDHQKKYGATVDLWSIGVTFYHAATGSLPFRPFEGPRRNKEVMYKIITGKPSGAISGVQKAENGPIDWSGDMPVSCSLSRGLQVLLTPVLANILEADQEKCWGFDQFFAETSDILHRMVIHVFSLQQMTAHKIYIHSYNTATIFHELVYKQTKIISSNQELIYEGRRLVLEPGRLAQHFPKTTEENPIFVVSREPLNTIGLIYEKISLPKVHPRYDLDGDASMAKAITGVVCYACRIASTLLLYQELMRKGIRWLIELIKDDYNETVHKKTEVVITLDFCIRNIEKTVKVYEKLMKINLEAAELGEISDIHTKLLRLSSSQGTIETSLQDIDSRLSPGGSLADAWAHQEGTHPKDRNVEKLQVLLNCMTEIYYQFKKDKAERRLAYNEEQIHKFDKQKLYYHATKAMTHFTDECVKKYEAFLNKSEEWIRKMLHLRKQLLSLTNQCFDIEEEVSKYQEYTNELQETLPQKMFTASSGIKHTMTPIYPSSNTLVEMTLGMKKLKEEMEGVVKELAENNHILERFGSLTMDGGLRNVDCL | – | binding [2]: binds
recombinant GST-tagged TBK1 (Sigma Cat# SRP5089) (enzyme, UniProt Q9UHD2 1-729) MQSTSNHLWLLSDILGQGATANVFRGRHKKTGDLFAIKVFNNISFLRPVDVQMREFEVLKKLNHKNIVKLFAIEEETTTRHKVLIMEFCPCGSLYTVLEEPSNAYGLPESEFLIVLRDVVGGMNHLRENGIVHRDIKPGNIMRVIGEDGQSVYKLTDFGAARELEDDEQFVSLYGTEEYLHPDMYERAVLRKDHQKKYGATVDLWSIGVTFYHAATGSLPFRPFEGPRRNKEVMYKIITGKPSGAISGVQKAENGPIDWSGDMPVSCSLSRGLQVLLTPVLANILEADQEKCWGFDQFFAETSDILHRMVIHVFSLQQMTAHKIYIHSYNTATIFHELVYKQTKIISSNQELIYEGRRLVLEPGRLAQHFPKTTEENPIFVVSREPLNTIGLIYEKISLPKVHPRYDLDGDASMAKAITGVVCYACRIASTLLLYQELMRKGIRWLIELIKDDYNETVHKKTEVVITLDFCIRNIEKTVKVYEKLMKINLEAAELGEISDIHTKLLRLSSSQGTIETSLQDIDSRLSPGGSLADAWAHQEGTHPKDRNVEKLQVLLNCMTEIYYQFKKDKAERRLAYNEEQIHKFDKQKLYYHATKAMTHFTDECVKKYEAFLNKSEEWIRKMLHLRKQLLSLTNQCFDIEEEVSKYQEYTNELQETLPQKMFTASSGIKHTMTPIYPSSNTLVEMTLGMKKLKEEMEGVVKELAENNHILERFGSLTMDGGLRNVDCL | – | binding [3]: binds
